Source: US20210122814A1
These are yes or no findings as the source states them, for the method shown. Some results given as binding are weak or reduced against the parent protein; the word gives no strength. One block for each binder: values may come before it.

Chains of the proteins cited; added tags and fusions are not shown. Lines headed by an entry give the natural chain unless they say otherwise; changes in a name come on top.
UniProt P01137: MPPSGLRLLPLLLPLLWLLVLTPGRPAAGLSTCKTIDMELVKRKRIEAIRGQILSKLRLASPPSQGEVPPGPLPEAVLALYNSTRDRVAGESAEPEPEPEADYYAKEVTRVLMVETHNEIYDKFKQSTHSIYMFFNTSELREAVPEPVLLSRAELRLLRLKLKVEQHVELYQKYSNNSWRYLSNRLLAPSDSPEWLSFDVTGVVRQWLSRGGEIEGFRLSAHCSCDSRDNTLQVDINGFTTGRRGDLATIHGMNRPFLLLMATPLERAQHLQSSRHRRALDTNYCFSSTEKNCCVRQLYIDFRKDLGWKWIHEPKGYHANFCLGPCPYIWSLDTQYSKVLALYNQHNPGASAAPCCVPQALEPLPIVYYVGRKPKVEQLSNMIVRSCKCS
UniProt Q14766: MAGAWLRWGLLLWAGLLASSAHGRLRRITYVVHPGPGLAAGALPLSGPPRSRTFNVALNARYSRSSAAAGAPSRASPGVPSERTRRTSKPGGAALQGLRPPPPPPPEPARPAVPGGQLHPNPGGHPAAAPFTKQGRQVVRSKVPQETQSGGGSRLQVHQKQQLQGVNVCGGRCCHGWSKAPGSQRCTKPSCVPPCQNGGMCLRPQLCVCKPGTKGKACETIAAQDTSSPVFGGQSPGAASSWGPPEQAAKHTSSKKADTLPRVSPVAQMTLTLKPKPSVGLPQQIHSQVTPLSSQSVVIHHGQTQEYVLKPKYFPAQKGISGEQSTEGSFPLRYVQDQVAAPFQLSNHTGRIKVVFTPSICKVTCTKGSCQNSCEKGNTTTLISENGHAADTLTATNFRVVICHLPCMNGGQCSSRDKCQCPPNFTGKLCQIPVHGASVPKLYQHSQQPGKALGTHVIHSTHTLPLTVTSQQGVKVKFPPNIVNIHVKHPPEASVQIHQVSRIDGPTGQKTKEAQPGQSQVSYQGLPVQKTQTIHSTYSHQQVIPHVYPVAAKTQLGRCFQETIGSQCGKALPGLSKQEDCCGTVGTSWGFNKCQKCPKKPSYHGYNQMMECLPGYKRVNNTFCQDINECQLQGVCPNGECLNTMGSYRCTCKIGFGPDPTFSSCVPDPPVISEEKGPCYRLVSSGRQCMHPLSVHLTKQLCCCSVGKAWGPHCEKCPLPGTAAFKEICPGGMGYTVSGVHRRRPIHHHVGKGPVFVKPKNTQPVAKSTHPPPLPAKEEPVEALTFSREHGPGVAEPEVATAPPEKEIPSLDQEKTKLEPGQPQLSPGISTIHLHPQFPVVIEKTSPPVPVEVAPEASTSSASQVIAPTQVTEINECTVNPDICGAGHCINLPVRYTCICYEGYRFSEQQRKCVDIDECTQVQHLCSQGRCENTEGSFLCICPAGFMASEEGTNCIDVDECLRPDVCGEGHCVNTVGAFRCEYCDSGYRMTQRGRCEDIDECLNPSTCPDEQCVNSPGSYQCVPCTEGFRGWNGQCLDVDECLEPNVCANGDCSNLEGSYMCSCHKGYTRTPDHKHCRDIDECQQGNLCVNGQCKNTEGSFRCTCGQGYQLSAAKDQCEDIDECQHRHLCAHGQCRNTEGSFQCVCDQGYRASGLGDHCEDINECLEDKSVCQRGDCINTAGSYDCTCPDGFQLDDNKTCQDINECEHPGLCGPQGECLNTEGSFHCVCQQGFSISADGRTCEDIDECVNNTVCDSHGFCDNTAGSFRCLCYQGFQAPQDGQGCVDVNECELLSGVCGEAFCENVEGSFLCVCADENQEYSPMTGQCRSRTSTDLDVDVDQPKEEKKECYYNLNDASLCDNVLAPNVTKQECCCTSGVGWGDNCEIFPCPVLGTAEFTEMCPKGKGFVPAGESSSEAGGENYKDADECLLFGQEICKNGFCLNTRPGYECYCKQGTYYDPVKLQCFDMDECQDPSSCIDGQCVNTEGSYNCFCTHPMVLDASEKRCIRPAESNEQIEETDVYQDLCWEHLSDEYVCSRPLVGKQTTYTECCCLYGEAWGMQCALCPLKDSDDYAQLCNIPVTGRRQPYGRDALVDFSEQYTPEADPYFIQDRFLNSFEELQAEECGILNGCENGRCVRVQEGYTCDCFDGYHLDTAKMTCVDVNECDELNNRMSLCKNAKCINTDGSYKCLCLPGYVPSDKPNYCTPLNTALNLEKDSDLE
UniProt Q9NS15: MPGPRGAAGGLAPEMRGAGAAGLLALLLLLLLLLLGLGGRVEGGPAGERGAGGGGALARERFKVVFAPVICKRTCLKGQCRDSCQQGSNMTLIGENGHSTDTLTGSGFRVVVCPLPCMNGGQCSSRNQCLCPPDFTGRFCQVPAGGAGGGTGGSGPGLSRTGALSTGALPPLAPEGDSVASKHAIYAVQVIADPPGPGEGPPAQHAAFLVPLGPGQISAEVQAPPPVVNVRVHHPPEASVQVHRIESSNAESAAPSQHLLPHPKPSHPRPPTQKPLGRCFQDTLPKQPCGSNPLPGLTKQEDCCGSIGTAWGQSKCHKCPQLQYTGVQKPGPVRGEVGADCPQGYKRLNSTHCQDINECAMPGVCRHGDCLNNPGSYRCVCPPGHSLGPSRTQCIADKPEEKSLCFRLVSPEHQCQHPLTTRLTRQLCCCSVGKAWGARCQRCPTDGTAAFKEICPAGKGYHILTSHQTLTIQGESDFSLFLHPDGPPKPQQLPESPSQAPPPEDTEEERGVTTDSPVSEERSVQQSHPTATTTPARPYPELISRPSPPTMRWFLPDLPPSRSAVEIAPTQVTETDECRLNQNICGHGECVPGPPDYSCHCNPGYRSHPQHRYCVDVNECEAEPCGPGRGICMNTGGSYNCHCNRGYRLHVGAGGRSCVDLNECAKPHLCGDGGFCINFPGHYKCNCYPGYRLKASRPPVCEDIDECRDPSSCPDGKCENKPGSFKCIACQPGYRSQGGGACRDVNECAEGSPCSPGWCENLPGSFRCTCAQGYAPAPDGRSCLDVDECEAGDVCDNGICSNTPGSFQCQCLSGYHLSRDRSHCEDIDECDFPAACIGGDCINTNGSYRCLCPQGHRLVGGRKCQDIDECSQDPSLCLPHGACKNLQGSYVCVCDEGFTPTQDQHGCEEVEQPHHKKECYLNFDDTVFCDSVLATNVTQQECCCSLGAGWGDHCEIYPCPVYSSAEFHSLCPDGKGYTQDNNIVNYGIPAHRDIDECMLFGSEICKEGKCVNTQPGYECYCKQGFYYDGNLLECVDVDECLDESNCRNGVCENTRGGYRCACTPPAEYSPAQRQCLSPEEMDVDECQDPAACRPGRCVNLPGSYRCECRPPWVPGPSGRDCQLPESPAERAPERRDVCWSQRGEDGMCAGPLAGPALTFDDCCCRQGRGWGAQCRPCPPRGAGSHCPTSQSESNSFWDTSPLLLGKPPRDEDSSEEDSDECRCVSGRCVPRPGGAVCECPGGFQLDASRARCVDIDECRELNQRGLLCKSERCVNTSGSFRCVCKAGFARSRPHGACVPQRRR
UniProt P17246: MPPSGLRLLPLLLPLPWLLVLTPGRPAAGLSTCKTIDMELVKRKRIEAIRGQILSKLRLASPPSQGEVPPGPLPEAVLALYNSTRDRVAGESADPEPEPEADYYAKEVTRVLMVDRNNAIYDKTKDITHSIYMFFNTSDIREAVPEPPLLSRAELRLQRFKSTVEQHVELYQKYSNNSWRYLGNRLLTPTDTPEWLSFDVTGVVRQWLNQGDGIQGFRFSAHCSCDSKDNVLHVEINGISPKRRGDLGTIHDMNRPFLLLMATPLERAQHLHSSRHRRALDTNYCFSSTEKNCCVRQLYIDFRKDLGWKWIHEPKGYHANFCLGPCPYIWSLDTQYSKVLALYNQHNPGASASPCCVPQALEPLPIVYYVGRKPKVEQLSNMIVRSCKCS
UniProt Q00918: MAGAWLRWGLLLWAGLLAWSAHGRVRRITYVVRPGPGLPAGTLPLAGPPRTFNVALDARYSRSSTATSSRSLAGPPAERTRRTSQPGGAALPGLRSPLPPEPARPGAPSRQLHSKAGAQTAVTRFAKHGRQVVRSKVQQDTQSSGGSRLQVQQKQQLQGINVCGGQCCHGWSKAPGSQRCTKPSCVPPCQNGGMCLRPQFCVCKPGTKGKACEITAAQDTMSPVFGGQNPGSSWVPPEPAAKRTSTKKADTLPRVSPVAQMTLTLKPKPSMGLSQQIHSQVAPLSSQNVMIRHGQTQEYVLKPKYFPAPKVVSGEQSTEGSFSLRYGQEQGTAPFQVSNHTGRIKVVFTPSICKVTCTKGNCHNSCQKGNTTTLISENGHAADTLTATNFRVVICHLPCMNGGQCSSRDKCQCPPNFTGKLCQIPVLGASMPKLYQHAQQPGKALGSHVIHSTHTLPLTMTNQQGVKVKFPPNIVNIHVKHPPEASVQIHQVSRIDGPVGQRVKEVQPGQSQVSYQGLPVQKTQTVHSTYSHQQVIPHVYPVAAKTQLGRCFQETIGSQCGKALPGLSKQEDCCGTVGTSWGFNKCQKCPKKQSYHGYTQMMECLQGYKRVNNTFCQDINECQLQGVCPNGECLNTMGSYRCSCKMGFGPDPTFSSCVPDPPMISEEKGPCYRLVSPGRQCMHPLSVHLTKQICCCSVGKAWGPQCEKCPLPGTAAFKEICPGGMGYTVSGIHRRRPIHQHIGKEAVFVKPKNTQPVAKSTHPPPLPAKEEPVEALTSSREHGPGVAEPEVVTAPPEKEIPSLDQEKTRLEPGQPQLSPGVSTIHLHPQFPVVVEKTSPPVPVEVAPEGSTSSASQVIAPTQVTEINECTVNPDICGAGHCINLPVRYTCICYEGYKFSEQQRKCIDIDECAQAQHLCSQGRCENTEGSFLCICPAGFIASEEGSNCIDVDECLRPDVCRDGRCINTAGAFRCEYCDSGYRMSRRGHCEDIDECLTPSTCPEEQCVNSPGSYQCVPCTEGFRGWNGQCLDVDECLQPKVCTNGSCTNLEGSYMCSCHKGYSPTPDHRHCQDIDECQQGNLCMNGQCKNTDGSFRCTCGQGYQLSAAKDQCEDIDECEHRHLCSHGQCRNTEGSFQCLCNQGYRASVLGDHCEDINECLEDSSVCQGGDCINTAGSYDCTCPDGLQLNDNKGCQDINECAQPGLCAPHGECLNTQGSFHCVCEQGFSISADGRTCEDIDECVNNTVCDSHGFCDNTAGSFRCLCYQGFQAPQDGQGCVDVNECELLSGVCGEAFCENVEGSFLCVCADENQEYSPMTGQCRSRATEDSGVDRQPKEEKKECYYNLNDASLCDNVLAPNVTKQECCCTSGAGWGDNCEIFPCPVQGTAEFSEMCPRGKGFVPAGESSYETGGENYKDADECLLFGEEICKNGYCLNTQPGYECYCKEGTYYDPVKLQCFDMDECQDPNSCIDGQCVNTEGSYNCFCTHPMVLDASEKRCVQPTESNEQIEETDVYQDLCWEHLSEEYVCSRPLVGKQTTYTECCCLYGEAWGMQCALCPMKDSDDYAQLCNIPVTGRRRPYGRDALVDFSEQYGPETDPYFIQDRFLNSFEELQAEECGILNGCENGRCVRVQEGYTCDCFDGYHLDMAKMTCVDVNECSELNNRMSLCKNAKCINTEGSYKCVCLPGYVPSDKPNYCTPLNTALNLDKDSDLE
UniProt Q5BK65: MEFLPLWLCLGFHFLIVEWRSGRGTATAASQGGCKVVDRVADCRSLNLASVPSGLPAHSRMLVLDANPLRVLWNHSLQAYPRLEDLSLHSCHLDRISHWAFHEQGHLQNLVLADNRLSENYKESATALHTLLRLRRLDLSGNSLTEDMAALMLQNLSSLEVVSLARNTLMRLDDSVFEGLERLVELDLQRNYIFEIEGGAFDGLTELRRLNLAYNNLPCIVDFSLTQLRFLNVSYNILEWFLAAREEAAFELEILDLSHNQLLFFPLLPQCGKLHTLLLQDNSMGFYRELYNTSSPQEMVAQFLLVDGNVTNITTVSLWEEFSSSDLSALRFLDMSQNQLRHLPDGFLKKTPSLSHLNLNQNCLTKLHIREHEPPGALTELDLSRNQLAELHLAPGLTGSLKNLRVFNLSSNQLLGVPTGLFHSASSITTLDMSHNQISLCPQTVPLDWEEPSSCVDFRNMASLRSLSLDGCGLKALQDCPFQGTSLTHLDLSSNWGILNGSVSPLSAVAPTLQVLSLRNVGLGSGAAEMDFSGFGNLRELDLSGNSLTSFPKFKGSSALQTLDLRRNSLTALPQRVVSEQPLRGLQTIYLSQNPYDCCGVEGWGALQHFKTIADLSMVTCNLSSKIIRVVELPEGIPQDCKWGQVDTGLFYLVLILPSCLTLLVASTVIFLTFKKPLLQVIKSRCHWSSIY
UniProt P04202: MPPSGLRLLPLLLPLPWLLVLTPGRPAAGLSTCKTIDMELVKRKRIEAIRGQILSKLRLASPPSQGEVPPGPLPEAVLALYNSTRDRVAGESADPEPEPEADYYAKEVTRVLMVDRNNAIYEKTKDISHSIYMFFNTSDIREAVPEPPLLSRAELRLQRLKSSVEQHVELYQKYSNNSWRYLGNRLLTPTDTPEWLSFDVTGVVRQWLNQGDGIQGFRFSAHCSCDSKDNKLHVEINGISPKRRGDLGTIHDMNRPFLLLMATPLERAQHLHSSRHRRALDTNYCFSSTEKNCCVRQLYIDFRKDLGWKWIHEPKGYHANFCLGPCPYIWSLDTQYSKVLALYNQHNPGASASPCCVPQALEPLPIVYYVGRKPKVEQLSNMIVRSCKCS

Tests used:
[1] = molecular target: hLRRC33-proTGFβ1 on the cell surface (human) (UniProt P01137); test: internalization assay on transfected cells (FIG. 6)
[2] = molecular target: recombinant human LTBP1-proTGFβ1 complex (human) (UniProt Q14766); test: MSD-SET (solution equilibrium titration), % free antigen against Ab6 concentration
[3] = molecular target: recombinant human LTBP3-proTGFβ1 complex (human) (UniProt Q9NS15); test: as above
[4] = molecular target: cynomolgus LRRC33-proTGFβ1 complex (cynomolgus monkey); test: MSD-SET
[5] = molecular target: T1, rat LTBP1-proTGFβ1 complex (rat) (UniProt P17246+Q00918); test: MSD-SET
[6] = molecular target: recombinant human LTBP1-proTGFβ1 complex (human) (UniProt Q14766); test: MSD-SET
[7] = molecular target: T2, rat LRRC33-proTGFβ1 complex (rat) (UniProt P17246+Q5BK65); test: MSD-SET
[8] = molecular target: recombinant human LTBP3-proTGFβ1 complex (human) (UniProt Q9NS15); test: MSD-SET
[9] = molecular target: cynomolgus LRRC33-proTGFβ1 complex (cynomolgus monkey); test: antigen binding test after affinity maturation
[10] = molecular target: murine LTBP1-proTGFβ1 complex (mouse) (UniProt P04202); test: antigen binding test after affinity maturation
[11] = molecular target: murine LRRC33-proTGFβ1 complex (mouse) (UniProt Q8BMT4); test: antigen binding test after affinity maturation
[12] = molecular target: T1, rat LTBP1-proTGFβ1 complex (rat); test: antigen binding test after affinity maturation
[13] = molecular target: recombinant human LTBP1-proTGFβ1 complex (human) (UniProt Q14766); test: antigen binding test after affinity maturation
[14] = molecular target: T2, rat LRRC33-proTGFβ1 complex (rat); test: antigen binding test after affinity maturation
[15] = molecular target: recombinant human LTBP3-proTGFβ1 complex (human) (UniProt Q9NS15); test: antigen binding test after affinity maturation
[16] = molecular target: murine LTBP3-proTGFβ1 complex (mouse) (UniProt P04202); test: antigen binding test after affinity maturation
[17] = molecular target: hLRRC33-proTGFβ1 on the cell surface (human) (UniProt P01137); test: Incucyte internalization assay, Expi293 cells expressing LRRC33-proTGFβ1
[18] = molecular target: recombinant human LTBP1-proTGFβ1 complex (human) (UniProt Q14766); test: MSD-SET (FIG. 33A)
[19] = molecular target: recombinant human LTBP3-proTGFβ1 complex (human) (UniProt Q9NS15); test: MSD-SET (FIG. 33A)
[20] = molecular target: murine LTBP1-proTGFβ1 complex (mouse) (UniProt P04202); test: biolayer interferometry (screening)
[21] = molecular target: recombinant human LTBP1-proTGFβ1 complex (human) (UniProt Q14766); test: biolayer interferometry (screening)
[22] = molecular target: recombinant human LTBP3-proTGFβ1 complex (human) (UniProt Q9NS15); test: biolayer interferometry (screening)
[23] = molecular target: murine LTBP3-proTGFβ1 complex (mouse) (UniProt P04202); test: biolayer interferometry (screening)

binding [1]: binds
binding [2]: binds
binding [3]: binds
binding [4]: binds
binding [5]: binds
binding [6]: binds
binding [7]: binds
binding [8]: binds
binding [9]: binds
binding [10]: binds
binding [11]: binds
binding [12]: binds
binding [13]: binds
binding [14]: binds
binding [15]: binds
binding [16]: binds
binding [17]: binds
binding [18]: binds
binding [19]: binds
B1: Ab6 (antibody, V domains shown)
VH: EVQLVESGGGLVQPGGSLRLSCTASGFTFSSFSMDWVRQAPGKGLEWVSYISPSADTIYYADSVKGRFTISRDNAKNTLYLQMNSLRAEDTAVYYCARGVLDYGDMLMPWGQGTLVTVSS
VL: DIQMTQSPSSLSASVGDRVTITCQASQDITNYLNWYQQKPGKAPKLLIYDASNLETGVPSRFSGSGSGTDFTFTISSLQPEDIATYYCQQADNHPPWTFGGGTKVEIKR

binding [20]: binds
binding [21]: binds
binding [22]: binds
binding [23]: binds
B2: Ab4 (antibody, IgG4, V domains shown)
VH: EVQLVESGGGLVQPGGSLRLSCAASGFTFSSYSMNWVRQAPGKGLEWVSYISSSSSTIYYADSVKGRFTISRDNAKNSLYLQMNSLRAEDTAVYYCARGVLDYGDMLDPWGQGTLVTVSS
VL: DIQMTQSPSSLSASVGDRVTITCQASQDITNYLNWYQQKPGKAPKLLIYDASNLETGVPSRFSGSGSGTDFTFTISSLQPEDIATYYCQQADNHPPWTFGGGTKVEIK
